# Reference: PubChem BioAssay
# Sequences of proteins named here, by UniProt entry; tags and fusion partners are left off.
# UniProt P08183, whole entry, looked up: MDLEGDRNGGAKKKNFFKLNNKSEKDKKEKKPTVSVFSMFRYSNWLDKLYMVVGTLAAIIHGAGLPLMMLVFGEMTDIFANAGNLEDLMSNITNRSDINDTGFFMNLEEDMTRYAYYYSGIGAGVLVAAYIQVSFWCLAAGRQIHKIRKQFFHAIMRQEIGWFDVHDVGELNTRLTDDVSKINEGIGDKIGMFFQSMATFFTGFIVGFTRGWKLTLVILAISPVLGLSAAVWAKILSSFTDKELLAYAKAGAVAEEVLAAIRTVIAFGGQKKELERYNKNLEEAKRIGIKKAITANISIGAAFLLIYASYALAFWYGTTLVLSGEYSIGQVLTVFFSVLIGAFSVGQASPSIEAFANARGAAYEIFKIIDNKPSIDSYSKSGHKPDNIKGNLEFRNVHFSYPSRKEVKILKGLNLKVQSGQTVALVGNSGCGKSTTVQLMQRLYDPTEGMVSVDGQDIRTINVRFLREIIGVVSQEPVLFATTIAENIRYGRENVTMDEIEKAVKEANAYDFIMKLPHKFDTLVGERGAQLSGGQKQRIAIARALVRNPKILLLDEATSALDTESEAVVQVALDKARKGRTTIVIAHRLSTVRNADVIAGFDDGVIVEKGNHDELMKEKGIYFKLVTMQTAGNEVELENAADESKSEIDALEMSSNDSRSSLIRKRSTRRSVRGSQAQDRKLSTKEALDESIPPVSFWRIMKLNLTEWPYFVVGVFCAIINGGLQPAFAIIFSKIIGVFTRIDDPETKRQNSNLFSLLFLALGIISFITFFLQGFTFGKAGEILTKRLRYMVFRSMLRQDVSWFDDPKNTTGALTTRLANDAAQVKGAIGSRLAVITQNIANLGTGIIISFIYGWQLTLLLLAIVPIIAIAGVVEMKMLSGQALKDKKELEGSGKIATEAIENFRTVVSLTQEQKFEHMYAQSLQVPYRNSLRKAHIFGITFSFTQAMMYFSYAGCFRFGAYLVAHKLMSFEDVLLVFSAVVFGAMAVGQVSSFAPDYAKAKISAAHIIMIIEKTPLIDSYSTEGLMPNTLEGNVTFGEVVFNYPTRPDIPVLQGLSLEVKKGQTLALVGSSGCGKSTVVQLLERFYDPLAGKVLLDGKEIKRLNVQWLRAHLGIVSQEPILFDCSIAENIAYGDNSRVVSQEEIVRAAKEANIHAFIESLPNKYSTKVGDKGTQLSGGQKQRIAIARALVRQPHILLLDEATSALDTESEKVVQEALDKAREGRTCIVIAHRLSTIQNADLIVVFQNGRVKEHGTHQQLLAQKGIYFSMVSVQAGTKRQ
# Inconclusive means that the source gave no clear call. Such entries were picked first, then a sample of the others. For some assays here: Where the call is inconclusive, the potency comes from a doubtful curve fit. The source made the active and inactive calls. Unless noted, the limit is not given here; nearly all actives have AC50 up to about 26 µM.
# What was measured:
# [1] = growth inhibition of DIPG glioma cells, dose response, cell-based, SU-DIPG-XVII, MIPE5.0, CellTiter-Glo, qHTS (AID 1347060); details: SU-DIPG-XVII viability, CellTiter-Glo ATP luminescence;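 as to AC50: cells exposed to compound for 48 hours before viability readout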
# [2] = viability loss in pontine glioma line – cell-based, SU-DIPG-XXV, MIPE5.0, CellTiter-Glo, qHTS, dose response (AID 1347065); details: CellTiter-Glo ATP luminescence;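 also: cells exposed to compound for 48 hours before ATP readout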
# [3] = JHH-DIPG-1 glioma cell viability, MIPE5.0 library, CellTiter-Glo luminescence, qHTS (AID 1347067); details: JHH-DIPG-1 glioma viability, CellTiter-Glo ATP luminescence;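 also: cells exposed to compound for 48 hours before readout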
# [4] = SU-DIPG-XXV glioma cell viability, MIPE5.0 library, qHTS (AID 1347068; cut-off not given, nearly all actives have IC50 up to about 30 µM;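 as to IC50: cells exposed to compound for 48 hours before viability readout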)
# [5] = target: ATP-dependent translocase ABCB1 (Homo sapiens) (UniProt P08183); test: MDR1 (ABCB1) efflux transporter inhibition, cell-based (AID 377; in the data active = fluorescence slope change above about 50%; inconclusive = mostly about 31% to 49%); details: MDR1-expressing cells, fluorescent substrate accumulation slope; stronger effect = higher value; concentration not given here
# [6] = inhibitors of polyQ aggregate elongation, biochemical, solid-phase synthetic aggregates, QA3 (AID 1585; call rule not given here); details: biotin-polyQ incorporation, at 100 µM, stronger effect = higher value
# [7] = polyglutamine aggregation reduction, turbidity readout, qthio, single concentration 25 µM screen (AID 1588; call rule not given here); details: at 25 µM, stronger effect = lower value
# [8] = enhancers of SMN2 over SMN1 splicing, cell-based, SMN2/SMN1 luciferase reporters (AID 1598; call rule not given here); details: SMN2 vs SMN1 luciferase splicing reporter cells; at 10 µM; stronger effect = higher value
compound,measurement,setting,value
CNCCN(C)Cc1cn[nH]c1-c1ccc(OC2CC(OCCC3CCOCC3)C2)cc1 (stereo not drawn),outcome,[1],inactive
same,AC50,[2],inconclusive: 0.00105 µM [cytotoxic]
same,outcome,[3],inactive
Cc1cccc(-c2[nH]ncc2-c2ccc(F)c(-c3cnn(CCO)c3)c2)n1,outcome,[1],inactive
same,AC50,[2],inconclusive: 18.6 µM [cytotoxic]
same,AC50,[3],inconclusive: 0.0468 µM
same,IC50,[4],active: 26.3 µM
C[C@H](Nc1ncnc2nc[nH]c12)c1cc2ccc(F)cc2nc1-c1ccccn1,AC50,[1],inconclusive: 0.0059 µM [cytotoxic]
same,AC50,[2],inconclusive: 0.00186 µM [cytotoxic]
same,outcome,[3],inactive
same,outcome,[4],inactive
O=C(/C=C\n1cnc(-c2cc(C(F)(F)F)cc(C(F)(F)F)c2)n1)N1CC(F)(F)C1,AC50,[1],active: 1.18 µM
same,AC50,[2],active: 13.2 µM
same,IC50,[4],inconclusive: 0.934 µM [cytotoxic]
CC(=O)O[C@@]12CO[C@@H]1C[C@H](O)[C@@]1(C)C(=O)[C@H](O)C3=C(C)[C@@H](OC(=O)[C@H](O)[C@@H](NC(=O)OC(C)(C)C)c4ccccc4)C[C@@](O)([C@@H](OC(=O)c4ccccc4)[C@H]21)C3(C)C,AC50,[1],inconclusive: 0.00263 µM [cytotoxic]
same,outcome,[3],inactive
Cc1nc2c(-c3cnc(N)nc3)nc(N3CCOCC3)nc2n1C(C)C,AC50,[1],active: 0.742 µM
same,AC50,[2],active: 0.332 µM
same,IC50,[4],inconclusive: 0.661 µM [cytotoxic]
NC(=O)c1cnc(N[C@@H]2CCCC[C@@H]2N)nc1Nc1cccc(-n2nccn2)c1,AC50,[1],inconclusive: 18.6 µM [cytotoxic]
same,AC50,[3],active: 23.5 µM
NC(=S)N/N=C/c1ncccc1N,AC50,[1],inconclusive: 0.105 µM [cytotoxic]
same,AC50,[2],active: 16.6 µM
same,AC50,[3],active: 14.8 µM
same,IC50,[4],inconclusive: 0.00209 µM
CCN(CC)CCCC(C)Nc1c2ccc(Cl)cc2nc2ccc(OC)cc12 (stereo not drawn),fluorescence slope change,[5],active: 75.1%
same,inhibition,[6],inconclusive: -1.12%
same,aggregation (% of control),[7],inconclusive: 106%
same,SMN2/SMN1 luciferase ratio,[8],inconclusive: 1.14
same,AC50,[1],active: 8.33 µM
same,AC50,[2],active: 11.8 µM
same,IC50,[4],inconclusive: 1.86 µM
CCOCc1nc2c(N)nc3ccccc3c2n1CC(C)(C)O,AC50,[1],inconclusive: 20.9 µM [cytotoxic]
same,AC50,[3],inconclusive: 0.0105 µM [cytotoxic]
CN1CCN(c2ccc(-c3cccc(CN4CCOCC4)c3)cc2NC(=O)c2c[nH]c(=O)cc2C(F)(F)F)CC1,outcome,[1],inactive
same,outcome,[2],inactive
same,AC50,[3],inconclusive: 2.3 µM
O=C(O)c1ccc(CCCc2ccc(OCCc3ccc(F)cc3)cc2)o1,AC50,[1],inconclusive: 26.3 µM [cytotoxic]
same,AC50,[2],inconclusive: 37.2 µM [cytotoxic]
same,AC50,[3],inconclusive: 26.3 µM [cytotoxic]
same,IC50,[4],inconclusive: 29.5 µM [cytotoxic]
CN[C@H]1CC[C@@H](c2ccc(Cl)c(Cl)c2)c2ccccc21,AC50,[1],inconclusive: 37.2 µM [cytotoxic]
same,AC50,[2],inconclusive: 18.6 µM [cytotoxic]
same,IC50,[4],inconclusive: 11.8 µM [cytotoxic]
CC1(C)OCCn2c1nc1c(N3CCOCC3)nc(-c3cnc(N)nc3)nc12,AC50,[1],active: 3.72 µM
same,AC50,[2],active: 1.48 µM
same,AC50,[3],active: 1.32 µM
same,IC50,[4],inconclusive: 1.66 µM [cytotoxic]
CCN(CCCOc1ccc2c(Nc3cc(CC(=O)Nc4cccc(F)c4)[nH]n3)ncnc2c1)CCOP(=O)(O)O,AC50,[1],inconclusive: 2.35 µM [cytotoxic]
same,AC50,[2],active: 1.18 µM
same,AC50,[3],inconclusive: 0.934 µM [cytotoxic]
same,outcome,[4],inactive
C[C@@H](c1ccc2nccn2c1)n1nnc2ncc(-c3cnn(C)c3)nc21,outcome,[1],inactive
same,AC50,[3],inconclusive: 14.8 µM [cytotoxic]
O=c1[nH]c([C@@H]2CCCN2)nc2c1oc1ccc(Cl)cc12,AC50,[1],inconclusive: 20.9 µM [cytotoxic]
same,AC50,[2],inconclusive: 5.9 µM [cytotoxic]
same,AC50,[3],inconclusive: 33.2 µM [cytotoxic]
same,outcome,[4],inactive
CC(C)NC(=O)C1CCC(n2c(NC(=O)c3ccc(F)cc3)nc3ccc(CN4CCC(C(C)(C)O)CC4)cc32)CC1 (stereo not drawn),AC50,[1],active: 9.1 µM
same,outcome,[3],inactive
same,IC50,[4],inconclusive: 8.11 µM [cytotoxic]
CN1CCN(c2nc(C3=C(c4c[nH]c5ccccc45)C(=O)NC3=O)c3ccccc3n2)CC1,AC50,[1],inconclusive: 37.2 µM [cytotoxic]
same,AC50,[2],inconclusive: 37.2 µM [cytotoxic]
same,outcome,[3],inactive
Cc1cc(O)c(-c2ccc([C@@H](C)CN(C)C)cc2)c2c1[nH]c(=O)c1sccc12,AC50,[1],inconclusive: 0.372 µM [cytotoxic]
same,AC50,[2],active: 0.332 µM
same,AC50,[3],active: 0.417 µM
same,IC50,[4],active: 0.332 µM

# Four entries from above, reformatted.
compound | measurement | setting | value
CC(=O)O[C@@]12CO[C@@H]1C[C@H](O)[C@@]1(C)C(=O)[C@H](O)C3=C(C)[C@@H](OC(=O)[C@H](O)[C@@H](NC(=O)OC(C)(C)C)c4ccccc4)C[C@@](O)([C@@H](OC(=O)c4ccccc4)[C@H]21)C3(C)C | outcome | [3] | inactive
CCN(CC)CCCC(C)Nc1c2ccc(Cl)cc2nc2ccc(OC)cc12 (stereo not drawn) | aggregation (% of control) | [7] | inconclusive: 106%
same | AC50 | [1] | active: 8.33 µM
CN1CCN(c2nc(C3=C(c4c[nH]c5ccccc45)C(=O)NC3=O)c3ccccc3n2)CC1 | outcome | [3] | inactive
